In publication PMC6790403 (International Journal of Nanomedicine, 2019):

Test system: MDA-MB-231 cells
Assay: Cytotoxicity by MTT assay
Type: cell-based
Conditions: Homo sapiens

Q: How did the IC50 turn out when COc1cccc2c1C(=O)c1c(O)c3c(c(O)c1C2=O)C[C@@](O)(C(=O)CO)C[C@@H]3O[C@H]1C[C@H](N)[C@H](O)[C@H](C)O1 [DOX, (7S, 9S)-7-[(2R, 4S, 5S, 6S)-4-amino-5-hydroxy-6-methyloxan-2-yl]oxy-6,9,11-trihydroxy-9-(2-hydroxyacetyl)-4-methoxy-8,10-dihydro-7H-tetracene-5,12-dione] was run?
A: Its IC50 is 6.2 µM.
